# Library screen at single concentrations

Source: ChEMBL document CHEMBL3988442, “University of Dundee, Small-Polar-MMV Screening Library” (2021).

Mtb cholesterol medium: 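Whole-cell growth test on Mycobacterium tuberculosis, read after 4 days in a medium based on cholesterol and the lipid DPPC; the read-out is not stated. Concentration: 50 µM. Higher reads as more growth inhibition (inferred: compounds with an IC50 in retests scored well above the rest). Size under these conditions: about 69,000 compounds, about 370 of them at 50% or above in at least one test.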
Mtb glucose medium: 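Phenotypic screen: M. tuberculosis growth, glucose 7H9 medium, 3 days; the read-out is not stated. Compounds at 50 µM. Direction is inferred from retests: higher values go with more growth inhibition. Size under these conditions: about 69,000 compounds, about 760 of them at 50% or above in at least one test.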

Each number is a percent effect as filed. The record does not define 0% and 100%; most values in the screen are far below 50% and negative numbers occur (in some assays of this library far below -100). The compounds are a random part of those screened. Two or more numbers in one place are separate tests of the same structure; such repeats can differ widely.

Result for c1nc(N2CCCCC2Cn2cncn2)c2ccsc2n1 (centres unmarked) was Mtb cholesterol medium: -7.74%; Mtb glucose medium: -12.24%.
Result for Cl.Cl.c1cncc(COC[C@@H]2CCC[C@@]23CNCCO3)c1 was Mtb cholesterol medium: -12.79%; Mtb glucose medium: -9.385%.
Result for CNC(=O)C1Cn2ccnc2C2(CCN(Cc3c(C)noc3C)CC2)O1 (centres unmarked) was Mtb cholesterol medium: -15.62% & -8.196%; Mtb glucose medium: -20.65%.
Result for COc1ccc2c(c1)NC(C1CCN(C(=O)C3CC3)CC1)NS2(=O)=O (centres unmarked) was Mtb cholesterol medium: 1.793%; Mtb glucose medium: -7.006%.
Result for CCN(C(=O)c1ccc(-c2ccccc2)nc1C)C1CC(=O)NC1=O (centres unmarked) was Mtb cholesterol medium: -20.31%; Mtb glucose medium: -10.63%.
Result for O=C1COC2(COCCN(c3cnccn3)C2)CN1c1cccc(F)c1 (centres unmarked) was Mtb cholesterol medium: 0.6337%; Mtb glucose medium: -7.803%.
Result for CC(NC(=O)N1CCCCCC1)c1ccc(S(N)(=O)=O)cc1 (centres unmarked) was Mtb cholesterol medium: -1.239%; Mtb glucose medium: -0.3774%.
Result for Cc1cc(C(=O)NCc2cccnc2OC(C)C)no1 was Mtb cholesterol medium: -7.064%; Mtb glucose medium: 6.084%.
Result for O=C(CCn1cccn1)N1CCC(C2CCN(c3ncccn3)CC2)C1 (centres unmarked) was Mtb cholesterol medium: 3.759%; Mtb glucose medium: 14.86%.
Result for CCC(CC)NCC(c1ccccn1)N1CCOCC1 (centres unmarked) was Mtb cholesterol medium: -0.1878%; Mtb glucose medium: -0.9413%.
Result for Cn1cc(C(=O)NC2CCN(Cc3ccn(C)c(=O)c3)CC2)cn1 was Mtb cholesterol medium: -5.211%; Mtb glucose medium: -15.24%.
Result for Cn1ccnc1CN1CCCN(C(=O)c2ccc3[nH]cnc3c2)CC1 was Mtb cholesterol medium: -3.263%; Mtb glucose medium: 1.865%.
Result for CC(C)C(=O)N1CCC(C)(c2cc(O)[nH]n2)CC1 was Mtb cholesterol medium: 0.494%; Mtb glucose medium: -16.15%.
Result for CCCN1CCN(C(=O)C(C)n2cc(Br)cn2)CC1 (centres unmarked) was Mtb cholesterol medium: -1.11%; Mtb glucose medium: 6.383%.
Result for CCN(Cc1ccncc1)C(=O)c1cn(CC2CCCNC2)nn1 (centres unmarked) was Mtb cholesterol medium: -12.77%; Mtb glucose medium: -17.37% & -8.908%.
Result for Cc1nonc1OCCNC(=O)COc1ccc(Cl)cc1Cl was Mtb cholesterol medium: 18.87%; Mtb glucose medium: 26.73% & 21.15%.
Result for CN(C)c1ccc(-c2nnc([C@H]3CCN(C4CCCCC4)C3)o2)cc1 was Mtb cholesterol medium: -12.78%; Mtb glucose medium: -11.19% & 4.237%.
Result for O=C(O)c1cccc(S(=O)(=O)N2CCOc3ccccc32)c1 was Mtb cholesterol medium: -3.707%; Mtb glucose medium: 3.769%.
Result for Cn1cnc2c1CCN(c1ccnc(-c3ccccc3)n1)C2 was Mtb cholesterol medium: 54.82%; Mtb glucose medium: 54.62%.
Result for Cc1ccc(OC2(C(=O)NC(C)Cc3ccncc3)CCNCC2)cc1 (centres unmarked) was Mtb cholesterol medium: -6.607%; Mtb glucose medium: -41.31%.
Result for O=C(O)C(F)(F)F.[H][C@@]12CN(CC)C[C@]1([H])[C@@H](OC)CCN2C(=O)Cc1ccsc1 was Mtb cholesterol medium: 64.6%; Mtb glucose medium: -8.3%.
Result for Cc1cc(F)cc(S(=O)(=O)NC(=O)CCc2cncc(F)c2)c1 was Mtb cholesterol medium: 17.66%; Mtb glucose medium: 15.94%.
Result for COC(=O)c1ccc(CNC(C)c2ccc(S(C)(=O)=O)cc2)cc1 (centres unmarked) was Mtb cholesterol medium: -5.62%; Mtb glucose medium: 0.5833%.
Result for Cc1noc(C)c1CNCC1COCc2c(-c3ccsc3)nnn2C1.O=C(O)C(F)(F)F (centres unmarked) was Mtb cholesterol medium: -7.636%; Mtb glucose medium: 19.69%.
Result for Cc1cnn(CC2CCCN2C(=O)c2nccc3ccccc23)c1 (centres unmarked) was Mtb cholesterol medium: 11.11%; Mtb glucose medium: -21.37%.
Result for Cn1ncc2c1C(COCC1CC1)CN(CC1CC1)C2 (centres unmarked) was Mtb cholesterol medium: -8.618%; Mtb glucose medium: 1.269%.
Result for [H][C@]12CC[C@]([H])(CN(Cc3cccc(O)c3)C1)N(Cc1c(C)noc1C)C2=O was Mtb cholesterol medium: -30.62%; Mtb glucose medium: -27.68%.
Result for NC(=O)CN1CCC(OCc2ccc(Cl)c(Cl)c2)CC1 was Mtb cholesterol medium: 17.71%; Mtb glucose medium: 25.18%.
Result for O=C(CN1CCOC(Cn2cccn2)C1)Nc1cccnc1 (centres unmarked) was Mtb cholesterol medium: -12.06%; Mtb glucose medium: -11.03%.
Result for CCO[C@@H]1CO[C@@]2(CCN(Cc3ccc4c(c3)OCO4)C2)C1.O=C(O)C(F)(F)F was Mtb cholesterol medium: 12.96%; Mtb glucose medium: 22.04%.
Result for Cc1nc(CN(C)C2CCN(Cc3ccc(Cl)s3)C2)no1 (centres unmarked) was Mtb cholesterol medium: 8.527%; Mtb glucose medium: 10.34%.
Result for CNc1cncc(C2CCCN2Cc2cccc(C)n2)n1 (centres unmarked) was Mtb cholesterol medium: -12.88%; Mtb glucose medium: 27.27%.
Result for O=C(O)C(F)(F)F.O=C(O)C(F)(F)F.O=C(O)C(F)(F)F.[H][C@@]12CN(CCOC)C[C@]1([H])[C@@H](OC)CCN2Cc1cccc(C)n1 was Mtb cholesterol medium: -14.31%; Mtb glucose medium: 13.39%.
Result for CC(C)(C)n1ncc(NCC(O)c2ccccc2)c(Cl)c1=O (centres unmarked) was Mtb cholesterol medium: -0.6391% & 4.2%; Mtb glucose medium: 40.47%.
Result for COc1ccc(CN2CCn3cccc3C2C)cc1F (centres unmarked) was Mtb cholesterol medium: 5.459% & 4.585%; Mtb glucose medium: 16.06%.
Result for O=c1ccc(-c2cccs2)nn1CN1CCc2ccccc2C1 was Mtb cholesterol medium: -14.74%; Mtb glucose medium: -8.208%.
Result for CCCOc1ccc(CNCCn2cccn2)cc1 was Mtb cholesterol medium: -1.403%; Mtb glucose medium: 0.7047%.
Result for COc1cccc(CN(C)C(=O)CSc2ccc3c(c2)OCCO3)c1 was Mtb cholesterol medium: 25.64%; Mtb glucose medium: 33.87% & 37.16%.
Result for [H][C@@]12CS(=O)(=O)C[C@]1([H])N(C(=O)c1ncoc1C)CCN2C(=O)CC(C)C was Mtb cholesterol medium: -29.61%; Mtb glucose medium: -42.79%.
Result for O=C(O)C(F)(F)F.[H][C@@]12CCN(Cc3ccco3)[C@]1([H])CC[C@H](COCC1CC1)O2 was Mtb cholesterol medium: 2.851%; Mtb glucose medium: 3.015%.

The last 5 entries again:

{"compound": "O=c1ccc(-c2cccs2)nn1CN1CCc2ccccc2C1", "Mtb cholesterol medium": -14.74, "Mtb glucose medium": -8.208}
{"compound": "CCCOc1ccc(CNCCn2cccn2)cc1", "Mtb cholesterol medium": -1.403, "Mtb glucose medium": 0.7047}
{"compound": "COc1cccc(CN(C)C(=O)CSc2ccc3c(c2)OCCO3)c1", "Mtb cholesterol medium": 25.64, "Mtb glucose medium": "33.87 & 37.16"}
{"compound": "[H][C@@]12CS(=O)(=O)C[C@]1([H])N(C(=O)c1ncoc1C)CCN2C(=O)CC(C)C", "Mtb cholesterol medium": -29.61, "Mtb glucose medium": -42.79}
{"compound": "O=C(O)C(F)(F)F.[H][C@@]12CCN(Cc3ccco3)[C@]1([H])CC[C@H](COCC1CC1)O2", "Mtb cholesterol medium": 2.851, "Mtb glucose medium": 3.015}